Construct, isoform or probe ends are uncertain for at least one entry. Weaker means in comparison with the reference protein, sequence or condition of that experiment. Where a protein sequence is shown, tags need not be part of it.
System: T1, CrtR ortholog (CrtRPc) (Pseudarthrobacter chlorophenolicus DSM 12829)
T1 sequence (looked up, limits assumed): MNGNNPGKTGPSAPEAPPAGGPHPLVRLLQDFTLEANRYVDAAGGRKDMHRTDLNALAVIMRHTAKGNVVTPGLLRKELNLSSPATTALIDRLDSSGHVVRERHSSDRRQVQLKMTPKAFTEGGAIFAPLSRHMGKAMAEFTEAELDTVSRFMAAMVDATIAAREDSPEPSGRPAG
Experiment: EMSA
Conditions: GGPP (100-650 uM), inhibits binding; 50 mM Tris-HCl pH 7.5, 10% glycerol, 50 mM KCl, 10 mM MgCl2, 0.5 mM EDTA; 20 uL, 30-90 ng DNA, 30 min at room temperature; recombinant protein; protein details: N-terminal His-tag (pET16b), not removed; probe letters rebuilt from the primers and the genome

## TGCCTTCCATGCGGATGGTCCACGCGGGACAAAGCGGAGTAGGATTGGTTCCACATTAGACTATCTCCATGATAGAGATAAGTGCCAGTCAAGCTTTTTCAACGGGGGCCTCCGCCGGGGGCTTCCACGGCTGAGCCAGGTAATGCCAAGGCAGCTGAAGTAATATCCCTCAGGGCCTGTGCGCAAAGACGGACGGCCCCACGAACTCCAGGAGGTGACCATGAACGGCAACAATCCGGGCA (double strand) [P. chlorophenolicus crtR-mmpl intergenic region (PcrtR)]
  binding result: binds more weakly

Reference: publication PMC7432914, “Corynebacterium glutamicum CrtR and Its Orthologs in Actinobacteria: Conserved Function and Application as Genetically Encoded Biosensor for Detection of Geranylgeranyl Pyrophosphate” (International Journal of Molecular Sciences, 2020)
